Counter-ions that a name gives are not always drawn. Some of the results follow. The calls rarely recur for the same compound in another form.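 Kinases were expressed as nanoluciferase fusions in K562 cells and luminescence was read every 4 h between 2 and 18 h as percent of control, DMSO set to 100% and a positive control to 0%. A time point counts as decreased when the signal drops significantly (2 sigma). The hit call is the authors' own, does not follow from the count of time points alone, and its rule is not shown.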
How the values were obtained:
Assay in all cases: number of time points (of 5) at which kinase-Nluc abundance scored as decreased, DMSO-normalised (count); higher = more persistent destabilization
Settings in all cases: K562; 2-18 h
FLT3 = FLT3 (UniProt P36888)
FYN = FYN (UniProt P06241)
GSK3A = GSK3A (UniProt P49840)
HER2 = HER2 (UniProt P04626)
INSRR = INSRR (UniProt P14616)
IRAK3 = IRAK3 (UniProt Q9Y616)
JAK1 = JAK1 (UniProt P23458)
LCK = LCK (UniProt P06239)
LIMK1 = LIMK1 (UniProt P53667)
LIMK2 = LIMK2 (UniProt P53671)
LMTK2 = LMTK2 (UniProt Q8IWU2)
LYN = LYN (UniProt P07948)
MAP2K1 = MAP2K1 (UniProt Q02750)
MAP2K2 = MAP2K2 (UniProt P36507)
MAP4K2 = MAP4K2 (UniProt Q12851)
MAPK1 = MAPK1 (UniProt P28482)
MAPK4 = MAPK4 (UniProt P31152)
MAPKAPK2 = MAPKAPK2 (UniProt P49137)
MKNK1 = MKNK1 (UniProt Q9BUB5)
NTRK2 = NTRK2 (UniProt Q16620)

Sequences of proteins named here, by UniProt entry; tags and fusion partners are left off. A change or cut given only in a name is not applied to a line headed by its entry.
UniProt P06241, whole entry, looked up: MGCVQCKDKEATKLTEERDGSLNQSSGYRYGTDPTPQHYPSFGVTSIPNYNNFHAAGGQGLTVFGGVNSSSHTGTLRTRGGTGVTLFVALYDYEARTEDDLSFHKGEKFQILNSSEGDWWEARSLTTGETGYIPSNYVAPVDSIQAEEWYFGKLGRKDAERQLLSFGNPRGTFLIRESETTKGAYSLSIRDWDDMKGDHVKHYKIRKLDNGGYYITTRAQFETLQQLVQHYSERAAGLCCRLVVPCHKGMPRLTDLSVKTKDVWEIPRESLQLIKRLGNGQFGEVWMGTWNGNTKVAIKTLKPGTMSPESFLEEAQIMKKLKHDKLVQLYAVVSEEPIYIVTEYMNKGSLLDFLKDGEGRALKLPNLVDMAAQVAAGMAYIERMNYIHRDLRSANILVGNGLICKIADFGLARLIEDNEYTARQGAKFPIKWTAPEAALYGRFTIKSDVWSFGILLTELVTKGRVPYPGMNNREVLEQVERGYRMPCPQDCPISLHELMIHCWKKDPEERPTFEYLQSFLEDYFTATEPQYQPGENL
UniProt Q9Y616: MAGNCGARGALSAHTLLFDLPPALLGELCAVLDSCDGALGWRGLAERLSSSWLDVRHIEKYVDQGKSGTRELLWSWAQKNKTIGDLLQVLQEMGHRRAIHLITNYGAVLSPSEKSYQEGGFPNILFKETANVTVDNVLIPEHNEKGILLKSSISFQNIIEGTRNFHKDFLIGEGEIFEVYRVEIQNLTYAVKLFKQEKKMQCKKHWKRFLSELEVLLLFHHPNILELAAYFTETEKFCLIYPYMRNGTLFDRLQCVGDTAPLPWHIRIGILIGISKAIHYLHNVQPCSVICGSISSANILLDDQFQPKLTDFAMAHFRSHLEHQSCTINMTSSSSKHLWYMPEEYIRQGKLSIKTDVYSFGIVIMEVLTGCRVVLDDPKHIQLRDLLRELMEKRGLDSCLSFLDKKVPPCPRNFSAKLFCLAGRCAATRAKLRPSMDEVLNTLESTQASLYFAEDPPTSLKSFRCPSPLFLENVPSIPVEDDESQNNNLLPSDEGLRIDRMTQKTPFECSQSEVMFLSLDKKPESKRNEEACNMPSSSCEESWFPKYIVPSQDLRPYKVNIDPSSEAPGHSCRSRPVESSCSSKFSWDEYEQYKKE
UniProt P06239: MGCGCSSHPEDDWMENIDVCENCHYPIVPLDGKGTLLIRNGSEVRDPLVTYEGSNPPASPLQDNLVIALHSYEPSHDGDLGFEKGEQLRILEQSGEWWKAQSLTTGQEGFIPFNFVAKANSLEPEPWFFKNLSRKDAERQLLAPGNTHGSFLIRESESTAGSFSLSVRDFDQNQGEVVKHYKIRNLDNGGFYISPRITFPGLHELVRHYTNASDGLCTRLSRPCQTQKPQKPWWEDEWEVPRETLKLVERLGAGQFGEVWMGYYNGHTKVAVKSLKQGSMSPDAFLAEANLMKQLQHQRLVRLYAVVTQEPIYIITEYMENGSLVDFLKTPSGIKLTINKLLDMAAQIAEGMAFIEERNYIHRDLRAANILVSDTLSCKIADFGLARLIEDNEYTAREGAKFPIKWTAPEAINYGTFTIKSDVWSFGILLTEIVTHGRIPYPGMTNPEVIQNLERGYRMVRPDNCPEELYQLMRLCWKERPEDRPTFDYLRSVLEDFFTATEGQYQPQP
UniProt P53667: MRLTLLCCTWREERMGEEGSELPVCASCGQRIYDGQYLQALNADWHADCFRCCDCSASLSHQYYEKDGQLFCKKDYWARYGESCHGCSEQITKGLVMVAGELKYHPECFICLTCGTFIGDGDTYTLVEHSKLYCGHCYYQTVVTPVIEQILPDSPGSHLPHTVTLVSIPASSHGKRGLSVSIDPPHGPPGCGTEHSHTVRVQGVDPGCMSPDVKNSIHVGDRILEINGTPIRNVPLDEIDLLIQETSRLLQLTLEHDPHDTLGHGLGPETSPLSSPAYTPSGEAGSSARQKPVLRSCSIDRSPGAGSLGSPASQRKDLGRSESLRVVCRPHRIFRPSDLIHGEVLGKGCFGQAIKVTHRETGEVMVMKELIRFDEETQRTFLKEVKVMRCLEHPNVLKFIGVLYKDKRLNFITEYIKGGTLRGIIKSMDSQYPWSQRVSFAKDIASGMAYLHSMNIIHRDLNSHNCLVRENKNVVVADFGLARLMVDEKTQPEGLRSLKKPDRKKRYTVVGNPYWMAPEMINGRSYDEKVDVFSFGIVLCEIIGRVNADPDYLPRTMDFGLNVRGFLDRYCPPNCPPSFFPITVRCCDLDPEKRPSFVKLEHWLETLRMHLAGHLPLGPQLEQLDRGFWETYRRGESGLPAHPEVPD
UniProt Q8IWU2: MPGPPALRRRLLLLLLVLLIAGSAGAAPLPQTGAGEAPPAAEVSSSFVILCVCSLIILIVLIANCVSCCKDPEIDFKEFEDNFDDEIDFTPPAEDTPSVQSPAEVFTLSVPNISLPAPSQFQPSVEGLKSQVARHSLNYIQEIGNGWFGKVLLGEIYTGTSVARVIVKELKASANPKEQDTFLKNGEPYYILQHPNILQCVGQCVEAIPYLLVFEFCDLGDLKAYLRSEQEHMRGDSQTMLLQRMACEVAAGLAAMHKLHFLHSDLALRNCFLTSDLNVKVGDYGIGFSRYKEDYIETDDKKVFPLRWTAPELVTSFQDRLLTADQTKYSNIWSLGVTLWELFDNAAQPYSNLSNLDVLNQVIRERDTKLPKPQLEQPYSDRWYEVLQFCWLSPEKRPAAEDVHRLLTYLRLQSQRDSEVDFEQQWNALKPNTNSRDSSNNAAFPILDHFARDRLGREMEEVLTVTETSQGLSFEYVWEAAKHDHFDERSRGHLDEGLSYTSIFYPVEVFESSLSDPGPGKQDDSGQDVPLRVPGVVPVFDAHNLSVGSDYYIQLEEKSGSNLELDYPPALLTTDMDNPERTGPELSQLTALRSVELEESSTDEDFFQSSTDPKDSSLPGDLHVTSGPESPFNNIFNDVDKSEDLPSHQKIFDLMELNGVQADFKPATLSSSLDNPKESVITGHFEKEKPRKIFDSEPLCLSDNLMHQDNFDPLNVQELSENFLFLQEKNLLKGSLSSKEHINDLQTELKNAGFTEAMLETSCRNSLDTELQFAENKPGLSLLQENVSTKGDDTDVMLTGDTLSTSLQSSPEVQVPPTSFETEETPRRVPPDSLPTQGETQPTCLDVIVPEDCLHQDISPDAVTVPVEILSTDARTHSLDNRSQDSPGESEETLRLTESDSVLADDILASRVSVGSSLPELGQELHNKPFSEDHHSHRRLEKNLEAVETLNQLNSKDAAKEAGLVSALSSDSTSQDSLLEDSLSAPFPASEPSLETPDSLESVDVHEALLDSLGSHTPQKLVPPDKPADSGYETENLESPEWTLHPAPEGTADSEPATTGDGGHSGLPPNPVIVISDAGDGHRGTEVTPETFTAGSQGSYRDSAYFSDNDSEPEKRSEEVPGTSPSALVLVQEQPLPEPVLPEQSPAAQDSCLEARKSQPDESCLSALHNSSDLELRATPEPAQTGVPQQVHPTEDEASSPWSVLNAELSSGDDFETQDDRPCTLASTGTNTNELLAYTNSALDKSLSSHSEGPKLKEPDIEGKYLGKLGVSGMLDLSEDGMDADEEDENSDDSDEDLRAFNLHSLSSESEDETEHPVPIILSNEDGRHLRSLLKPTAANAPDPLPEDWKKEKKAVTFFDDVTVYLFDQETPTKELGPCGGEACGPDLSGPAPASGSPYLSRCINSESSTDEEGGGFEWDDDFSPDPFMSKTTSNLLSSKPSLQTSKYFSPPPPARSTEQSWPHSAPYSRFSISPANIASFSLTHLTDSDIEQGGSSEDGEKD
UniProt P07948: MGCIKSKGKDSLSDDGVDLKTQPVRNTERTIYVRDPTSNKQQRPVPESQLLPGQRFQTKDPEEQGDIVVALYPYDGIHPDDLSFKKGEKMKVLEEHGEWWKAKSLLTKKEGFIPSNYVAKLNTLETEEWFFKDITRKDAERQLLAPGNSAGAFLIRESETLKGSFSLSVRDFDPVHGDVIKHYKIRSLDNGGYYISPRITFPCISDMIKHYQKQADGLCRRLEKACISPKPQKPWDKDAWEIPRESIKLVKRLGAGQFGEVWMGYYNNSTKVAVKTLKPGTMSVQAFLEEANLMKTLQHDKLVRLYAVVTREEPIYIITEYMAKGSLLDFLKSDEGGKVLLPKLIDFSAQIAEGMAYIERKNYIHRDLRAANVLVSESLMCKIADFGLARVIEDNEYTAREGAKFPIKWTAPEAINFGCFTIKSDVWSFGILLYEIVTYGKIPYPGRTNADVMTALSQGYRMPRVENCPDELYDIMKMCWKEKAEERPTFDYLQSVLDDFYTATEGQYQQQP
UniProt P28482, whole entry: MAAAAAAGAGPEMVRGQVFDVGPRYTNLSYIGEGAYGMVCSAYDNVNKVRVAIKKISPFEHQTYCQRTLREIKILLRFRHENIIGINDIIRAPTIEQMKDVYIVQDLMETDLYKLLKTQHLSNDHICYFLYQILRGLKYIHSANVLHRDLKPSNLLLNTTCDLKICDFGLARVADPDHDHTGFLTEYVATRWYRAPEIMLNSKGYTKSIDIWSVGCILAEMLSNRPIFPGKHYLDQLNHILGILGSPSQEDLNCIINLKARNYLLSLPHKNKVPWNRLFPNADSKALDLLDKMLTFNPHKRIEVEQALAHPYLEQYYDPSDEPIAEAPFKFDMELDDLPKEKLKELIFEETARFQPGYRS
UniProt P31152, whole entry: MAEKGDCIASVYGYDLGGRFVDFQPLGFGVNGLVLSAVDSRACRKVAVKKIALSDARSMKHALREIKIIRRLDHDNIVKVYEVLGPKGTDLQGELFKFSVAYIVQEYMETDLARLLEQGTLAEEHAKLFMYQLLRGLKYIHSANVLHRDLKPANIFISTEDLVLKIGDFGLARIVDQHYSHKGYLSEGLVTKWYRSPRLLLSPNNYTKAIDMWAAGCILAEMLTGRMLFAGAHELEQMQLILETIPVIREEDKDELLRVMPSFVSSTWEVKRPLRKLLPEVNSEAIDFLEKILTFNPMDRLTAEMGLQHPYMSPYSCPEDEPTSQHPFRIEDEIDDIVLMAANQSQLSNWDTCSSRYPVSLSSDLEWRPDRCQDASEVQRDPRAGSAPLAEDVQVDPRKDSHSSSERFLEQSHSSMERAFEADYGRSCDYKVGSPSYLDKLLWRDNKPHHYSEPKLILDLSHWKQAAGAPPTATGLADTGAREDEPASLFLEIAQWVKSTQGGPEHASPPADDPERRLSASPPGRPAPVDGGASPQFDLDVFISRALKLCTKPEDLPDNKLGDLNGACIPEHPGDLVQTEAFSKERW
UniProt Q9BUB5: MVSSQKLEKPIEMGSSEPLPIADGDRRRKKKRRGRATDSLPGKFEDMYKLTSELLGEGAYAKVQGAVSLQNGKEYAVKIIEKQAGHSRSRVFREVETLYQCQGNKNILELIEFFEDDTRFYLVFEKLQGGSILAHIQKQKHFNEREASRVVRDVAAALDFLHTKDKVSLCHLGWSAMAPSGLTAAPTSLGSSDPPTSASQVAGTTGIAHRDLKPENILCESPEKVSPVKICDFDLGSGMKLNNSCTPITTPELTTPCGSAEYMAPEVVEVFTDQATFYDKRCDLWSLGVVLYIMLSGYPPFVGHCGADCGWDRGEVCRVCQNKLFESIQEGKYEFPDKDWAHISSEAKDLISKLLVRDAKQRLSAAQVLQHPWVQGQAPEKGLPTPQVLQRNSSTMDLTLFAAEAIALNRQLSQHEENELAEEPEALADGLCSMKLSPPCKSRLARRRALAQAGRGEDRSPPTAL
UniProt Q16620, whole entry, looked up: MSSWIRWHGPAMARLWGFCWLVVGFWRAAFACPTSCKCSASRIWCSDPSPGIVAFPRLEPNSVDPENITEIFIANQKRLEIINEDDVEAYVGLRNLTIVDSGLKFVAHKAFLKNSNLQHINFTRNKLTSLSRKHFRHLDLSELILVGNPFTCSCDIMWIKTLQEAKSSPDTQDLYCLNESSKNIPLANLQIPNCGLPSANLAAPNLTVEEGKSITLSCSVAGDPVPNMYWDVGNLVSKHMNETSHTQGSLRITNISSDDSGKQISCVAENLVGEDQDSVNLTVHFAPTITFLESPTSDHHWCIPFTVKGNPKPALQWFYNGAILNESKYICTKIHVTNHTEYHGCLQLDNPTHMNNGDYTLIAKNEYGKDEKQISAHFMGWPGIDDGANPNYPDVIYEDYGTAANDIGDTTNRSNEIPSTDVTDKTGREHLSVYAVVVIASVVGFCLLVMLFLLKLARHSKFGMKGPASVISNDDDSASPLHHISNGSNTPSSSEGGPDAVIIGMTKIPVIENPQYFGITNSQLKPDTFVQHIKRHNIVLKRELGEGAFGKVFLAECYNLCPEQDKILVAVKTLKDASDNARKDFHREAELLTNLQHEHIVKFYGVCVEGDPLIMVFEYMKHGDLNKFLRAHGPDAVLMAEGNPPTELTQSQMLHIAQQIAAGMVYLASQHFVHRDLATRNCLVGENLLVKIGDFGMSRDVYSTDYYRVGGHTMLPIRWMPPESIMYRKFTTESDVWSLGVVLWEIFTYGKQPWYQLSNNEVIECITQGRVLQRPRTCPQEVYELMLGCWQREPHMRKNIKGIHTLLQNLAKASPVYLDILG

Measured: number of time points

COc1ccc2c(c1OC)C(OC)N(C)c1c-2ccc2cc3c(cc12)OCO3 (stereo not given) [Angoline] (10 µM)
0: all assays above

CC1C(=O)OC2C(O)C34C5OC(=O)C3(OC3OC(=O)C(O)C34C(C(C)(C)C)C5O)C12O (stereo not given) [Ginkgolide C] (10 µM)
0: all assays above

COc1ccc2c(c[n+](C)c3c4cc5c(cc4ccc23)OCO5)c1OC [Chelerythrine (chloride)] (10 µM)
1: LMTK2
5: LIMK2
4: IRAK3 | LIMK1
0: all other assays above

C[C@H](Nc1ncnc2[nH]cnc12)c1nc2ccc(F)cc2c(=O)n1-c1ccccc1 [Acalisib] (10 µM)
not listed: NTRK2
0: all other assays above

C/C=C(/C)C(=O)O[C@H]1[C@@H]2[C@H](C)C(=O)O[C@@H]2C[C@@H](C)[C@@H]2C=CC(=O)[C@]21C [Brevilin A] (2.5 µM)
0: all assays above

O=C(O)c1nn(Cc2ccc(Cl)cc2Cl)c2ccccc12 [Lonidamine] (10 µM)
0: all assays above

COc1ccc(N(C(=O)Oc2c(C)cccc2C)c2ccnc(Nc3ccc(N4CCN(C)CC4)cc3)n2)c(OC)c1 (2.5 µM)
0: all assays above

N#CC(C#N)=Cc1ccc(O)c(O)c1 [Tyrphostin 23] (10 µM)
0: all assays above

CC(=O)OC(C)(C)/C=C/C(=O)[C@](C)(O)[C@H]1[C@H](O)C[C@@]2(C)[C@@H]3CC=C4[C@@H](C=C(O)C(=O)C4(C)C)[C@]3(C)C(=O)C[C@]12C [Cucurbitacin E] (2.5 µM)
3: FLT3 | LIMK2
1: HER2 | MKNK1
2: IRAK3 | LMTK2 | MAPK4
4: FYN
0: all other assays above

CCN1CCN(C(=O)Cc2ccc(Nc3ncc(F)c(Nc4ccc(C(=O)Nc5ccccc5Cl)cc4)n3)cc2)CC1 (2.5 µM)
0: all assays above

O=c1ccc2cc(O[C@@H]3O[C@H](CO)[C@@H](O)[C@H](O)[C@H]3O)c(O)cc2o1 [Esculin] (10 µM)
0: all assays above

O=C1C=CC[C@@H]2[C@H]3CCCN4CCC[C@@H](CN12)[C@@H]34 [Sophocarpine (monohydrate)] (2.5 µM)
0: all assays above

CC(=O)O[C@H]1[C@H]2[C@@H](OC(=O)Cc3ccccc3)[C@@H](C)C[C@]2(OC(C)=O)C(=O)/C(C)=C/[C@@H]2[C@H](CC[C@@]13CO3)C2(C)C [Euphorbiasteroid] (10 µM)
0: all assays above

O=C(N[C@@H](COc1ccc2[nH]c(=O)[nH]c2c1)c1ccccc1)c1cccn(Cc2ccc(F)c(F)c2)c1=O (2.5 µM)
1: LMTK2
0: all other assays above

NCCc1cn(S(=O)(=O)c2c(Cl)nc3sccn23)c2ccccc12 (10 µM)
0: all assays above

N#CC(C#N)=NNc1cccc(Cl)c1 (2.5 µM)
0: all assays above

COc1cc2c(cc1F)C(c1ccccc1Cl)=Nc1c(n[nH]c1C)N2 (0.5 µM)
0: all assays above

CCCCCCCCCCCCCCCCOC[C@H](COP(=O)([O-])OCC[N+](C)(C)C)OC(C)=O (10 µM)
0: all assays above

COC[C@H]1OC(=O)c2coc3c2[C@@]1(C)C1=C(C3=O)[C@@H]2CCC(=O)[C@@]2(C)C[C@H]1OC(C)=O [Wortmannin] (2.5 µM)
4: FYN | MKNK1
1: JAK1
2: IRAK3 | LIMK1
3: LIMK2
0: all other assays above

C[C@H](CCC(=O)O)C[C@H](C)C[C@H](C)C(=O)/C=C(\O)[C@H](C)C[C@H](C)C/C=C/[C@@H](C)[C@@H](O)[C@@H](C)[C@@H](O)C[C@@H]1CC[C@@](C)([C@H]2CC[C@@](C)([C@@H](C)O)O2)O1 [Ionomycin (calcium)] (2.5 µM)
2: MAPK4
5: NTRK2
0: all other assays above

COc1ccc(/C=C/c2cc(OC)c(OC)c(OC)c2)cc1 (2.5 µM)
4: FYN
2: INSRR | JAK1 | MKNK1
1: FLT3 | LIMK1 | LIMK2 | LMTK2 | LYN
not listed: NTRK2
0: all other assays above

CN(C)C(=O)c1ccc(Cn2c(C(=O)O)cc3c(Br)cc(Sc4ccc(Cl)c(Cl)c4)cc32)cc1 [Rheb inhibitor NR1] (10 µM)
not listed: NTRK2
0: all other assays above

C/C(O)=C(\C#N)C(=O)Nc1cc(Br)ccc1Br (10 µM)
0: all assays above

CC(=O)Oc1ccc(/C=C/c2cc(OC(C)=O)cc(OC(C)=O)c2)cc1 [Triacetylresveratrol] (10 µM)
0: all assays above

C=C[C@H]1CN2CC[C@]3(C(=O)Nc4ccccc43)[C@@H]2C[C@@H]1/C(=C\OC)C(=O)OC [Corynoxeine] (2 µM)
0: all assays above

C=CC(=O)Nc1ccc2[nH]c(=O)n(C3CCN(Cc4ccc(-c5nc6cc[nH]c(=O)c6cc5-c5ccccc5)cc4)CC3)c2c1 [Borussertib] (10 µM)
1: LIMK1
0: all other assays above

CC(=O)c1c(O)c(C)c(O)c(Cc2c(O)c3c(c(C(=O)/C=C/c4ccccc4)c2O)OC(C)(C)C=C3)c1O [Rottlerin] (2 µM)
1: LMTK2
0: all other assays above

CCCS(=O)(=O)Nc1ccc(F)c(-n2cc(-c3cncnc3)c3nc(N(C)C4CCN(CC)CC4)ccc32)c1F (2 µM)
0: all assays above

O=C(/C=C/c1ccccc1)OC[C@H]1O[C@@H](O[C@@H]2OC=C[C@H]3[C@H](O)[C@@H]4O[C@]4(CO)[C@@H]23)[C@H](O)[C@@H](O)[C@@H]1O [Picroside I] (10 µM)
0: all assays above

C[S+]([O-])/C=C/CCN=C=S (stereo not given) [Sulforaphene] (10 µM)
0: all assays above

CC1=C[C@]23C(=O)[C@@H](C=C(CO)[C@@H](O)[C@]2(O)[C@H]1O)[C@H]1[C@@H](C[C@H]3C)C1(C)C [Ingenol] (10 µM)
0: all assays above

O=Cc1cn(Cc2ccc(Cl)cc2)c2ccccc12 [Oncrasin-1] (10 µM)
0: all assays above

O=C1c2ccccc2C(=O)c2c1cccc2-c1cnn(C2CCNCC2)c1 [PDK4-IN-1 (hydrochloride)] (10 µM)
1: LYN
2: LIMK1
0: all other assays above

CC(C)=CC[C@@H](OC(=O)CC(C)(C)O)C1=CC(=O)c2c(O)ccc(O)c2C1=O [β-Hydroxyisovalerylshikonin] (2.5 µM)
0: all assays above

COc1ccc2c(c1)/C(=C/c1cnc[nH]1)C(=O)N2 (2.5 µM)
0: all assays above

O=c1[nH]c2ccccc2n1C1CCN(Cc2ccc(-c3[nH]c4cc5ncnc5cc4nc3-c3ccccc3)cc2)CC1 [AKT inhibitor VIII] (2.5 µM)
0: all assays above

Cc1n[nH]cc1-c1cc2nc([C@@H]3CC4CCN3CC4)[nH]c(=O)c2s1 [Simurosertib] (2.5 µM)
0: all assays above

CCOC(=O)c1c(/C(C#N)=C\N)c2ccc(Cl)c(Cl)c2n1C (10 µM)
0: all assays above

C=CC(=O)N[C@H]1C=C(C)c2c(-c3cnc4ccccc4c3)c3c(N)ncnc3n2C1 (10 µM)
0: all assays above

Nc1ncnc2c1ncn2[C@@H]1O[C@@H]2COP(O)(=S)O[C@H]2[C@H]1O (stereo not given in full) [Sp-cAMPS (sodium salt)] (10 µM)
0: all assays above

O=C1C=CC[C@@H]2[C@H]3CCCN4CCC[C@@H](CN12)[C@@H]34 [Sophocarpine] (10 µM)
0: all assays above

CCCCNc1nc(N)c2[nH]c(=O)n(Cc3ccc(C)nc3)c2n1 (10 µM)
1: HER2
0: all other assays above

Cc1ccccc1-n1c(Cn2cnc3c(N)ncnc32)nc2cccc(C)c2c1=O (10 µM)
0: all assays above

C[C@H]1CC[C@]2(NC1)O[C@H]1C[C@H]3[C@@H]4CC[C@H]5C[C@@H](O)CC[C@]5(C)[C@H]4CC[C@]3(C)[C@H]1[C@@H]2C [Tomatidine] (2 µM)
not listed: MAPKAPK2
0: all other assays above

C[C@H]1CC[C@]2(NC1)O[C@H]1C[C@H]3[C@@H]4CC[C@H]5C[C@@H](O)CC[C@]5(C)[C@H]4CC[C@]3(C)[C@H]1[C@@H]2C [Tomatidine (hydrochloride)] (10 µM)
not listed: MAPKAPK2
0: all other assays above

CC(C)(C)c1cc(C=C(C#N)C#N)cc(Br)c1O (2.5 µM)
0: all assays above

— the supplement of paper PMC12823440, “Inhibitors supercharge kinase turnover through native proteolytic circuits” (Nature, 2025)
